From patent US20140287471A1, “VARIANT CBH I POLYPEPTIDES WITH REDUCED PRODUCT INHIBITION” (BP CORPORATION NORTN AMERICA INC., priority 2011, published 2014)

B1: 268— Phe (protein, UniProt P62694 18-513, looked up, variant R268F)
Exoglucanase 1: QSACTLQSETHPPLTWQKCSSGGTCTQQTGSVVIDANWRWTHATNSSTNCYDGNTWSSTLCPDNETCAKNCCLDGAAYASTYGVTTSGNSLSIGFVTQSAQKNVGARLYLMASDTTYQEFTLLGNEFSFDVDVSQLPCGLNGALYFVSMDADGGVSKYPTNTAGAKYGTGYCDSQCPRDLKFINGQANVEGWEPSSNNANTGIGGHGSCCSEMDIWEANSISEALTPHPCTTVGQEICEGDGCGGTYSDNFYGGTCDPDGCDWNPYRLGNTSFYGPGSSFTLDTTKKLTVVTQFETSGAINRYYVQNGVTFQQPNAELGSYSGNELNDDYCTAEEAEFGGSSFSDKGGLTQFKKATSGGMVLVMSLWDDYYANMLWLDSTYPTNETSSTPGAVRGSCSTSSGVPAQVESQSPNAKVTFSNIKFGPIGSTGNPSGGNPPGGNRGTTTTRRPATTTGSSPGPTQSHYGQCGGIGYSGPTVCASGTTCQVLNPYYSQCL
B2: 268— Ser (protein, UniProt P62694 18-513, looked up, variant R268S)
Exoglucanase 1: QSACTLQSETHPPLTWQKCSSGGTCTQQTGSVVIDANWRWTHATNSSTNCYDGNTWSSTLCPDNETCAKNCCLDGAAYASTYGVTTSGNSLSIGFVTQSAQKNVGARLYLMASDTTYQEFTLLGNEFSFDVDVSQLPCGLNGALYFVSMDADGGVSKYPTNTAGAKYGTGYCDSQCPRDLKFINGQANVEGWEPSSNNANTGIGGHGSCCSEMDIWEANSISEALTPHPCTTVGQEICEGDGCGGTYSDNSYGGTCDPDGCDWNPYRLGNTSFYGPGSSFTLDTTKKLTVVTQFETSGAINRYYVQNGVTFQQPNAELGSYSGNELNDDYCTAEEAEFGGSSFSDKGGLTQFKKATSGGMVLVMSLWDDYYANMLWLDSTYPTNETSSTPGAVRGSCSTSSGVPAQVESQSPNAKVTFSNIKFGPIGSTGNPSGGNPPGGNRGTTTTRRPATTTGSSPGPTQSHYGQCGGIGYSGPTVCASGTTCQVLNPYYSQCL
B3: 268— His (protein, UniProt P62694 18-513, looked up, variant R268H)
Exoglucanase 1: QSACTLQSETHPPLTWQKCSSGGTCTQQTGSVVIDANWRWTHATNSSTNCYDGNTWSSTLCPDNETCAKNCCLDGAAYASTYGVTTSGNSLSIGFVTQSAQKNVGARLYLMASDTTYQEFTLLGNEFSFDVDVSQLPCGLNGALYFVSMDADGGVSKYPTNTAGAKYGTGYCDSQCPRDLKFINGQANVEGWEPSSNNANTGIGGHGSCCSEMDIWEANSISEALTPHPCTTVGQEICEGDGCGGTYSDNHYGGTCDPDGCDWNPYRLGNTSFYGPGSSFTLDTTKKLTVVTQFETSGAINRYYVQNGVTFQQPNAELGSYSGNELNDDYCTAEEAEFGGSSFSDKGGLTQFKKATSGGMVLVMSLWDDYYANMLWLDSTYPTNETSSTPGAVRGSCSTSSGVPAQVESQSPNAKVTFSNIKFGPIGSTGNPSGGNPPGGNRGTTTTRRPATTTGSSPGPTQSHYGQCGGIGYSGPTVCASGTTCQVLNPYYSQCL
B4: 268— Trp (protein, UniProt P62694 18-513, looked up, variant R268W)
Exoglucanase 1: QSACTLQSETHPPLTWQKCSSGGTCTQQTGSVVIDANWRWTHATNSSTNCYDGNTWSSTLCPDNETCAKNCCLDGAAYASTYGVTTSGNSLSIGFVTQSAQKNVGARLYLMASDTTYQEFTLLGNEFSFDVDVSQLPCGLNGALYFVSMDADGGVSKYPTNTAGAKYGTGYCDSQCPRDLKFINGQANVEGWEPSSNNANTGIGGHGSCCSEMDIWEANSISEALTPHPCTTVGQEICEGDGCGGTYSDNWYGGTCDPDGCDWNPYRLGNTSFYGPGSSFTLDTTKKLTVVTQFETSGAINRYYVQNGVTFQQPNAELGSYSGNELNDDYCTAEEAEFGGSSFSDKGGLTQFKKATSGGMVLVMSLWDDYYANMLWLDSTYPTNETSSTPGAVRGSCSTSSGVPAQVESQSPNAKVTFSNIKFGPIGSTGNPSGGNPPGGNRGTTTTRRPATTTGSSPGPTQSHYGQCGGIGYSGPTVCASGTTCQVLNPYYSQCL
B5: 268— Glu (protein, UniProt P62694 18-513, looked up, variant R268E)
Exoglucanase 1: QSACTLQSETHPPLTWQKCSSGGTCTQQTGSVVIDANWRWTHATNSSTNCYDGNTWSSTLCPDNETCAKNCCLDGAAYASTYGVTTSGNSLSIGFVTQSAQKNVGARLYLMASDTTYQEFTLLGNEFSFDVDVSQLPCGLNGALYFVSMDADGGVSKYPTNTAGAKYGTGYCDSQCPRDLKFINGQANVEGWEPSSNNANTGIGGHGSCCSEMDIWEANSISEALTPHPCTTVGQEICEGDGCGGTYSDNEYGGTCDPDGCDWNPYRLGNTSFYGPGSSFTLDTTKKLTVVTQFETSGAINRYYVQNGVTFQQPNAELGSYSGNELNDDYCTAEEAEFGGSSFSDKGGLTQFKKATSGGMVLVMSLWDDYYANMLWLDSTYPTNETSSTPGAVRGSCSTSSGVPAQVESQSPNAKVTFSNIKFGPIGSTGNPSGGNPPGGNRGTTTTRRPATTTGSSPGPTQSHYGQCGGIGYSGPTVCASGTTCQVLNPYYSQCL
B6: 268— Tyr (protein, UniProt P62694 18-513, looked up, variant R268Y)
Exoglucanase 1: QSACTLQSETHPPLTWQKCSSGGTCTQQTGSVVIDANWRWTHATNSSTNCYDGNTWSSTLCPDNETCAKNCCLDGAAYASTYGVTTSGNSLSIGFVTQSAQKNVGARLYLMASDTTYQEFTLLGNEFSFDVDVSQLPCGLNGALYFVSMDADGGVSKYPTNTAGAKYGTGYCDSQCPRDLKFINGQANVEGWEPSSNNANTGIGGHGSCCSEMDIWEANSISEALTPHPCTTVGQEICEGDGCGGTYSDNYYGGTCDPDGCDWNPYRLGNTSFYGPGSSFTLDTTKKLTVVTQFETSGAINRYYVQNGVTFQQPNAELGSYSGNELNDDYCTAEEAEFGGSSFSDKGGLTQFKKATSGGMVLVMSLWDDYYANMLWLDSTYPTNETSSTPGAVRGSCSTSSGVPAQVESQSPNAKVTFSNIKFGPIGSTGNPSGGNPPGGNRGTTTTRRPATTTGSSPGPTQSHYGQCGGIGYSGPTVCASGTTCQVLNPYYSQCL
B7: 268— Asp (protein, UniProt P62694 18-513, looked up, variant R268D)
Exoglucanase 1: QSACTLQSETHPPLTWQKCSSGGTCTQQTGSVVIDANWRWTHATNSSTNCYDGNTWSSTLCPDNETCAKNCCLDGAAYASTYGVTTSGNSLSIGFVTQSAQKNVGARLYLMASDTTYQEFTLLGNEFSFDVDVSQLPCGLNGALYFVSMDADGGVSKYPTNTAGAKYGTGYCDSQCPRDLKFINGQANVEGWEPSSNNANTGIGGHGSCCSEMDIWEANSISEALTPHPCTTVGQEICEGDGCGGTYSDNDYGGTCDPDGCDWNPYRLGNTSFYGPGSSFTLDTTKKLTVVTQFETSGAINRYYVQNGVTFQQPNAELGSYSGNELNDDYCTAEEAEFGGSSFSDKGGLTQFKKATSGGMVLVMSLWDDYYANMLWLDSTYPTNETSSTPGAVRGSCSTSSGVPAQVESQSPNAKVTFSNIKFGPIGSTGNPSGGNPPGGNRGTTTTRRPATTTGSSPGPTQSHYGQCGGIGYSGPTVCASGTTCQVLNPYYSQCL
B8: 268— Cys (protein, UniProt P62694 18-513, looked up, variant R268C)
Exoglucanase 1: QSACTLQSETHPPLTWQKCSSGGTCTQQTGSVVIDANWRWTHATNSSTNCYDGNTWSSTLCPDNETCAKNCCLDGAAYASTYGVTTSGNSLSIGFVTQSAQKNVGARLYLMASDTTYQEFTLLGNEFSFDVDVSQLPCGLNGALYFVSMDADGGVSKYPTNTAGAKYGTGYCDSQCPRDLKFINGQANVEGWEPSSNNANTGIGGHGSCCSEMDIWEANSISEALTPHPCTTVGQEICEGDGCGGTYSDNCYGGTCDPDGCDWNPYRLGNTSFYGPGSSFTLDTTKKLTVVTQFETSGAINRYYVQNGVTFQQPNAELGSYSGNELNDDYCTAEEAEFGGSSFSDKGGLTQFKKATSGGMVLVMSLWDDYYANMLWLDSTYPTNETSSTPGAVRGSCSTSSGVPAQVESQSPNAKVTFSNIKFGPIGSTGNPSGGNPPGGNRGTTTTRRPATTTGSSPGPTQSHYGQCGGIGYSGPTVCASGTTCQVLNPYYSQCL
B9: 268— Thr (protein, UniProt P62694 18-513, looked up, variant R268T)
Exoglucanase 1: QSACTLQSETHPPLTWQKCSSGGTCTQQTGSVVIDANWRWTHATNSSTNCYDGNTWSSTLCPDNETCAKNCCLDGAAYASTYGVTTSGNSLSIGFVTQSAQKNVGARLYLMASDTTYQEFTLLGNEFSFDVDVSQLPCGLNGALYFVSMDADGGVSKYPTNTAGAKYGTGYCDSQCPRDLKFINGQANVEGWEPSSNNANTGIGGHGSCCSEMDIWEANSISEALTPHPCTTVGQEICEGDGCGGTYSDNTYGGTCDPDGCDWNPYRLGNTSFYGPGSSFTLDTTKKLTVVTQFETSGAINRYYVQNGVTFQQPNAELGSYSGNELNDDYCTAEEAEFGGSSFSDKGGLTQFKKATSGGMVLVMSLWDDYYANMLWLDSTYPTNETSSTPGAVRGSCSTSSGVPAQVESQSPNAKVTFSNIKFGPIGSTGNPSGGNPPGGNRGTTTTRRPATTTGSSPGPTQSHYGQCGGIGYSGPTVCASGTTCQVLNPYYSQCL
B10: 268— Asn (protein, UniProt P62694 18-513, looked up, variant R268N)
Exoglucanase 1: QSACTLQSETHPPLTWQKCSSGGTCTQQTGSVVIDANWRWTHATNSSTNCYDGNTWSSTLCPDNETCAKNCCLDGAAYASTYGVTTSGNSLSIGFVTQSAQKNVGARLYLMASDTTYQEFTLLGNEFSFDVDVSQLPCGLNGALYFVSMDADGGVSKYPTNTAGAKYGTGYCDSQCPRDLKFINGQANVEGWEPSSNNANTGIGGHGSCCSEMDIWEANSISEALTPHPCTTVGQEICEGDGCGGTYSDNNYGGTCDPDGCDWNPYRLGNTSFYGPGSSFTLDTTKKLTVVTQFETSGAINRYYVQNGVTFQQPNAELGSYSGNELNDDYCTAEEAEFGGSSFSDKGGLTQFKKATSGGMVLVMSLWDDYYANMLWLDSTYPTNETSSTPGAVRGSCSTSSGVPAQVESQSPNAKVTFSNIKFGPIGSTGNPSGGNPPGGNRGTTTTRRPATTTGSSPGPTQSHYGQCGGIGYSGPTVCASGTTCQVLNPYYSQCL

assay: CBH I protein quantification by RP-HPLC; conditions: CBH I variant protein level in sample
Protocol: CBH I protein concentrations in supernatants were quantified using RP-HPLC. The system used was an Agilent 1100 series model, equipped with quaternary pump (connected to reservoirs A and B, where reservoir A contained water with 0.1% trifluoroacetic acid and reservoir B contained acetonitrile with 0.1% trifluoroacetic acid), a diode array detector (monitored at 225 nm and 280 nm), and a fluorescence detector (monitored at ex/em 280/340 nm). An Agilent Zorbax 300SB-C3 (5 μM, 4.6×150 mm) was used to separate samples using a 20 minute method (30-50% B over 10 minutes; 100% B for 5 minutes; 30% B for 5 min; at 60° C. at a flow rate of 1 mL/min). CBH I was identified by a retention time at 7.8-8.2 minutes and quantitated by area. Concentrations were determined by reference to a standard curve generated with a commercial CBH I (E-CBH I from Megazymes).

Going from B1 to B2, the “RPLC Quantification” value rises from 2.5 µg/mL to 8.3 µg/mL (3.3-fold).

Compared with B3, B4 is 2.5-fold lower in “RPLC Quantification” value: 17.5 µg/mL for the first, 7.0 µg/mL for the second.

Compared with B5, B6 is 1.6-fold higher in “RPLC Quantification” value: 6.3 µg/mL for the first, 9.8 µg/mL for the second.

B7 and B8 are within 1.5-fold of each other in “RPLC Quantification” value: 7.8 µg/mL for the first, 6.7 µg/mL for the second.

First: B9
Second: B10
The “RPLC Quantification” value of the first is 11-fold higher: 5.5 µg/mL for the first, 0.5 µg/mL for the second.
